Test results published in patent publication US20190275058A1, “COMPOSITIONS AND METHODS FOR TREATING ADDICTION OR SUBSTANCE USE DISORDERS” (EMBERA NEUROTHERAPEUTICS, INC., priority 2016, published 2019).
Like-named read-outs stand apart in the source and are kept apart here.

Tests used:
[1] = Phase I single- and multiple-rising dose study: plasma pharmacokinetics; conditions: human, in vivo; for Cmax: n 6; for AUC(0-t): n 6, read-out: AUC0-12
Description: Total daily doses were double these amounts on BID dosing days. Primary outcomes were safety and pharmacokinetics of MET, its active metabolite (metyrapol), and OX. Safety measures included vital signs, ECGs an standard safety labs. Cortisol and other HPA axis parameters were monitored closely throughout the study.
They were not seeking to quit smoking. […] Primary outcomes were safety and pharmacokinetics.

[2] = Pharmacokinetic interaction between cocaine, metyrapone and oxazepam (plasma concentrations, GCMS); type: in vivo, rat; conditions: rats, ip
Method: . Thirty minutes following the drug combination or vehicle injection, the rats received intravenous injections of cocaine (0.25 mg/kg/infusion) every 2 minutes for 1 hour. After the final injection of cocaine, blood was collected from the catheter for the analysis of cocaine and its metabolites ecgonine methyl ester and benzoylecgonine. […] All drug concentrations were determined using GCMS procedures. […].

[3] = 270 mg Metyrapone/12 mg Oxazepam, Day 1, mean
[4] = 270 mg Metyrapone/12 mg Oxazepam, Day 10, mean
[5] = 540 mg Metyrapone/24 mg Oxazepam, Day 1, mean
[6] = 540 mg Metyrapone/24 mg Oxazepam, Day 10, mean
[7] = 720 mg Metyrapone/24 mg Oxazepam, Day 1, mean
[8] = 720 mg Metyrapone/24 mg Oxazepam, Day 10, mean

SMILES: O=C1Nc2ccc(Cl)cc2C(c2ccccc2)=NC1O (stereo not shown) [oxazepam]
- Cmax [1, 3]: 220 ng/mL
- AUC(0-t) [1, 3]: 1390 ng·h/mL
- Cmax [1, 4]: 349 ng/mL
- AUC(0-t) [1, 4]: 2330 ng·h/mL
- Cmax [1, 5]: 486 ng/mL
- AUC(0-t) [1, 5]: 3210 ng·h/mL
- Cmax [1, 6]: 607 ng/mL
- AUC(0-t) [1, 6]: 4080 ng·h/mL
- Cmax [1, 7]: 439 ng/mL
- AUC(0-t) [1, 7]: 2810 ng·h/mL
- Cmax [1, 8]: 653 ng/mL
- AUC(0-t) [1, 8]: 4540 ng·h/mL
- influence on plasma concentrations of each other [2]: did not influence plasma concentrations of each other
